Reference: patent US20250136719A1 (TECHNION RESEARCH AND DEVELOPMENT FOUNDATION, published 2025)
These are yes or no findings as the source states them, for the method shown. Some results given as binding are weak or reduced against the parent protein; the word gives no strength.

T1: latent 65 kDa heparanase (Hpa65) (UniProt Q9Y251)
T1 sequence (looked up): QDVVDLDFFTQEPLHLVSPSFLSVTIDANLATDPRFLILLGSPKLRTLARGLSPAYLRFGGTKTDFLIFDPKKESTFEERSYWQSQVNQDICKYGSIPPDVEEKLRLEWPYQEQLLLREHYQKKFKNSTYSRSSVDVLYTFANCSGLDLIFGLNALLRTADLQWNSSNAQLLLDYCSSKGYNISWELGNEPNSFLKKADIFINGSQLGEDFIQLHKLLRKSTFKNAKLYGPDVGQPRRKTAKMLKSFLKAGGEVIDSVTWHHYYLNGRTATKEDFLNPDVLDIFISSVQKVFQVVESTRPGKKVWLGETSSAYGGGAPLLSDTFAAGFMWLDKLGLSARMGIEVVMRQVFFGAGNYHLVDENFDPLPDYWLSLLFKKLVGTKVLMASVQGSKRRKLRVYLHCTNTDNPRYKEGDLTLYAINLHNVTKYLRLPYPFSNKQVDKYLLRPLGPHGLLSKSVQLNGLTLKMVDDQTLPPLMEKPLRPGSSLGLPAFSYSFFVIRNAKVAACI

T2: purified heparanase (HPSE) (UniProt Q9Y251)
T2 sequence (looked up) 1: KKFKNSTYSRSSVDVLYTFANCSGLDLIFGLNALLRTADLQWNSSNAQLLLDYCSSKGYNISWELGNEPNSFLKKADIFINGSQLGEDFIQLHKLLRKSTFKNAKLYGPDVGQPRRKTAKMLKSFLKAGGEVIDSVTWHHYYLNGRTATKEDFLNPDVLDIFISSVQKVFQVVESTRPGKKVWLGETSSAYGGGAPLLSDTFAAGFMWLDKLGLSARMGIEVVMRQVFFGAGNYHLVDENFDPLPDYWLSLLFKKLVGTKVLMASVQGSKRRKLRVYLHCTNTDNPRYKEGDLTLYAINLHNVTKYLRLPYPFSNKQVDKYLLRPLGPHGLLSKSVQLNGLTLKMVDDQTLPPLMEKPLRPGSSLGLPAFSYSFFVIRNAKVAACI
T2 sequence (looked up) 2: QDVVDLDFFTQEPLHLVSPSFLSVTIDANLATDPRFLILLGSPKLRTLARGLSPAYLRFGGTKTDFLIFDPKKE


Tests used:
[1] = target: T1, latent 65 kDa heparanase (Hpa65); experiment: ELISA on immobilized latent heparanase (FIG. 2A)
[2] = target: T2, purified heparanase (HPSE); experiment: X-ray crystallography of the complex
[3] = target: T2, purified heparanase (HPSE); experiment: size exclusion chromatography of the Fab:HPSE mixture

Row | Binder | binding [1] | binding [2] | binding [3]
1 | mAb A54 (antibody, IgG1, V domains shown, Murine monoclonal antibody, IgG1-Kappa; Purified on protein G from hybridoma, also expressed in 293F cells; also called A54 mAb; A54 antibody) VH: QVQLQQSGAELAKPGASVRMSCKASGYTFTNYWMHWVKQRPGQGLEWIGYINPTTGYTEYNQKFKDKATLTADKSSSTAYMQLSSLTSEDSAVYYCARGGAGYDYDEDYAMDYWGQGTSVTVSS VL: DIVLTQSPASLAVSLGQRATISCRASESVEYFGTSYMNWYQQKPGQPPKLLIYLASILESGIPARFSGSGSGTDFTLNIHPVEEEDAATYYCQQSNEDPYTFGGGTKLEIK | binds |  | 
2 | A54 Fab (Fab, V domains shown) VH: QVQLQQSGAELAKPGASVRMSCKASGYTFTNYWMHWVKQRPGQGLEWIGYINPTTGYTEYNQKFKDKATLTADKSSSTAYMQLSSLTSEDSAVYYCARGGAGYDYDEDYAMDYWGQGTSVTVSS VL: DIVLTQSPASLAVSLGQRATISCRASESVEYFGTSYMNWYQQKPGQPPKLLIYLASILESGIPARFSGSGSGTDFTLNIHPVEEEDAATYYCQQSNEDPYTFGGGTKLEIK |  | binds | binds
